From patent US20230218666A1, “ANTIMICROBIAL COMBINATIONS” (MARVELBIOTICS LIMITED, priority 2020, published 2023)

Test system: Lactobacillus plantarum
Assay: Phase 1: neutraliser validation using Lactobacillus plantarum
Type: cell-based
Details: for Efficacy: neutralisation of the test agent; for Toxicity: toxicity to L. plantarum

| Substance | Efficacy (neutraliser DE-N) | Toxicity (neutraliser DE-N) | Efficacy (neutraliser Quench) | Toxicity (neutraliser Quench) |
| --- | --- | --- | --- | --- |
| Copper gluconate | Yes | No | No | No |
| Zinc gluconate | Yes | No | No | No |
